PubChem BioAssay AID504784 | Drosophila RNAi Screening Center | 2011
Assay: 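Search for regulators of lipid droplet storage in oleate-fed fly cells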 (primary screen). System: Drosophila Kc167 embryonic cells. Reagents: long dsRNA against Drosophila genes, about 250 ng dsRNA per well. Time to read-out: 4 days. Treatment: cells fed 400 µM oleic acid bound to BSA. Measured: 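Microscope images give a droplet-to-nucleus area ratio, taken as log and converted to a screen-wide B-score; higher values mean greater lipid storage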. Scale: droplet/nuclear area B-score: higher = more stored lipid (overstorage).
The screen tested about 17,000 reagents; this is an unselected part of those with a known target gene and a result. 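Each column is one replicate's B-score; the combined score over replicates was not deposited, so single values may mislead.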 A plus sign joins genes that one reagent is predicted to hit. Further read-outs or replicates are left out here. No sequences are given here.

not [DRSC11378] — droplet/nuclear area B-score, replicate 1 = 0.221
tilB [DRSC20634] — droplet/nuclear area B-score, replicate 1 = 0.998
CG11828 [DRSC14394] — droplet/nuclear area B-score, replicate 1 = 1.61
CG11828 [DRSC22580] — droplet/nuclear area B-score, replicate 1 = 0.0733
Sgs4 [DRSC18715] — droplet/nuclear area B-score, replicate 1 = -0.0464
flw [DRSC17992] — droplet/nuclear area B-score, replicate 1 = -0.276
flw [DRSC18774] — droplet/nuclear area B-score, replicate 1 = -0.448
eEF1beta [DRSC07419] — droplet/nuclear area B-score, replicate 1 = 0.0512
Cpr30B [DRSC02728] — droplet/nuclear area B-score, replicate 1 = 1.18
CG4210 [DRSC15551] — droplet/nuclear area B-score, replicate 1 = -0.2
Dh44-R2 [DRSC06141] — droplet/nuclear area B-score, replicate 1 = -2.41
Dh44-R2 [DRSC06281] — droplet/nuclear area B-score, replicate 1 = -1.16
CG15107 [DRSC06534] — droplet/nuclear area B-score, replicate 1 = -1.89
CG14153 [DRSC10155] — droplet/nuclear area B-score, replicate 1 = -0.177
CG14153 [DRSC22595] — droplet/nuclear area B-score, replicate 1 = -1.89
CG17364 [DRSC10269] — droplet/nuclear area B-score, replicate 1 = -0.1
CG17364 [DRSC10270] — droplet/nuclear area B-score, replicate 1 = -1.44
CG17364 [DRSC22689] — droplet/nuclear area B-score, replicate 1 = 1.36
Oxp [DRSC06712] — droplet/nuclear area B-score, replicate 1 = 1.21

A run of entries of the results above, for reference:
Dh44-R2 [DRSC06141] — droplet/nuclear area B-score, replicate 1 = -2.41
Dh44-R2 [DRSC06281] — droplet/nuclear area B-score, replicate 1 = -1.16

Continued:
Bace [DRSC02197] — droplet/nuclear area B-score, replicate 1 = -2
CG4957 [DRSC02793] — droplet/nuclear area B-score, replicate 1 = -1.57
Tango14 [DRSC00667] — droplet/nuclear area B-score, replicate 1 = 1.67
CG9265 [DRSC03178] — droplet/nuclear area B-score, replicate 1 = -0.324
CG9265 [DRSC03179] — droplet/nuclear area B-score, replicate 1 = -1.29
LKRSDH [DRSC03015] — droplet/nuclear area B-score, replicate 1 = 0.214
mRpS22 [DRSC14488] — droplet/nuclear area B-score, replicate 1 = 0.926
CG8837 [DRSC00711] — droplet/nuclear area B-score, replicate 1 = -0.463
CG14464 [DRSC07760] — droplet/nuclear area B-score, replicate 1 = -0.742
CG31867 [DRSC03338] — droplet/nuclear area B-score, replicate 1 = 0.378
CG14658 [DRSC12244] — droplet/nuclear area B-score, replicate 1 = 0.94
CG1552 [DRSC19665] — droplet/nuclear area B-score, replicate 1 = -2.98
yellow-c + CIAPIN1 [DRSC01898] — droplet/nuclear area B-score, replicate 1 = 1.73
lark [DRSC11362] — droplet/nuclear area B-score, replicate 1 = 0.0516
Evi5 [DRSC19421] — droplet/nuclear area B-score, replicate 1 = -0.149
Nubpl [DRSC03725] — droplet/nuclear area B-score, replicate 1 = 0.0594
Pgant3 [DRSC05942] — droplet/nuclear area B-score, replicate 1 = 0.47
usp [DRSC18847] — droplet/nuclear area B-score, replicate 1 = 0.588
CG15922 [DRSC15128] — droplet/nuclear area B-score, replicate 1 = -2.25
Ste:CG33238 + Ste:CG33241 + Ste:CG33236 + 11 more [DRSC19004] — droplet/nuclear area B-score, replicate 1 = 0.154
Ste:CG33238 + Ste:CG33241 + Ste:CG33236 + 11 more [DRSC21260] — droplet/nuclear area B-score, replicate 1 = -0.0141
